The record followed here is patent publication US8980569B2, “Chronic lymphocytic leukemia prognosis and treatment” (Duke University, priority 2007, dated 2015).

The experiment relates to CLL cells. The experiment in a line: cells. The following applies: Homo sapiens, CLL cell, 72 h, read-out: effective dose for 50% killing (ED50).

Structures are written as SMILES.

On to `CC/C(=C(\c1ccccc1)c1ccc(OCCN(C)C)cc1)c1ccccc1` [TAM, tamoxifen], for which the EC50 came to 6.5 µM.
